According to PubChem BioAssay AID1671190 (National Center for Advancing Translational Sciences (NCATS), 2021):
In all, about 580,000 compounds went through this assay and about 6,100 (1.1%) were called active. Inconclusive means that the source gave no clear call. Such entries were picked first, then a sample of the others. Calls follow the shape of the dose curve; as a rule, active = well fitted inhibition curve with a large enough effect; inconclusive = small, poorly fitted or top-dose-only effect, or another doubt; inactive = no such curve, though single readings can be large or run the other way. Potencies beside an inconclusive call are fits to weak or partial responses and may not hold up.

The chains behind the UniProt entries cited, without tags or fusion partners. Where a name states a change or a piece, a line headed by the entry shows the natural chain unless it says otherwise.
UniProt P18054: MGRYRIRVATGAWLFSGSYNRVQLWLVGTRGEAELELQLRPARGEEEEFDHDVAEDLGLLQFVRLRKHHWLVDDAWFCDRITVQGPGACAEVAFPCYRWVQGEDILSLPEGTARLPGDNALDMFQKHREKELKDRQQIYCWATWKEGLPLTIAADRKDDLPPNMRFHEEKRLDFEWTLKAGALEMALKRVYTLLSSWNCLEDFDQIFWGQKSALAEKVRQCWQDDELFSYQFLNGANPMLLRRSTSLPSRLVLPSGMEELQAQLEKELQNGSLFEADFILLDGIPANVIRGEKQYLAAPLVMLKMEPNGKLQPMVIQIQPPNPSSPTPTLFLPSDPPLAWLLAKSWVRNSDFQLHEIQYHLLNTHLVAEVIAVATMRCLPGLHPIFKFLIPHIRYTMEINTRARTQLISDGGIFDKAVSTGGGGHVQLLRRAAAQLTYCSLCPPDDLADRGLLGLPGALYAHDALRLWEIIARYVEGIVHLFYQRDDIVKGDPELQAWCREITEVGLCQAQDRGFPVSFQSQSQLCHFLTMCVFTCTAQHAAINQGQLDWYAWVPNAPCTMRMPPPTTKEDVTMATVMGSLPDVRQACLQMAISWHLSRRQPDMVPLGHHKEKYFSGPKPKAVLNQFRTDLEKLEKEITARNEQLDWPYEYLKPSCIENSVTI

target: Polyunsaturated fatty acid lipoxygenase ALOX12 (Homo sapiens) (UniProt P18054); test: Primary qHTS assay for inhibitors of human arachidonate 12S-lipoxygenase (ALOX12): Round 2; conditions: purified 12hLO, xylenol orange hydroperoxide absorbance; activity change, negative = inhibition: at 108 µM (top of the series) unless noted
Method in brief: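 Purified human 12hLO at 150 nM in 25 mM Hepes, 0.01% Triton X-100, pH 7.0, preincubated 15 min at room temperature with compound. Reaction started with 40 uM arachidonic acid, 30 min at room temperature. Hydroperoxide measured by Fe-xylenol orange, 573/405 nm absorbance ratio.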
% is scaled to controls: 0 for no effect and ±100 for the full control effect; potency is read from the fitted curve at half-maximal effect.

SMILES	Potency	activity change, negative = inhibition
CN1CC(=O)N(c2ccccc2F)Cc2c(NC3CCNCC3)ncnc21	inconclusive: 7.94 µM [inhibitor, full curve, poor fit]	–
O=Cc1cccn1-c1ccc(I)cc1	inconclusive: 50.1 µM [inhibitor, partial curve, poor fit]	–
Cc1ccnn1CCC(=O)N1CCCC(Nc2ccc(F)c(F)c2)C1 (stereo not given)	–	inactive: 0%
CCn1c2ccccc2c2cc(NC(=O)c3ccc(C)c([N+](=O)[O-])c3)ccc21	–	inactive: -10.7%
CCOc1ccc(Br)cc1C1=NN(C(C)=O)C(c2ccc([N+](=O)[O-])s2)O1 (stereo not given)	–	inactive: -8.13%
Cc1ccc(-c2onc3ccc(C4(C)OCCO4)cc23)cc1	inconclusive: 4.47 µM [inhibitor, partial curve, poor fit]	–
Cc1cc(Oc2ccc([N+](=O)[O-])cc2)nc(N2CCOCC2)n1	inconclusive: 12.6 µM [inhibitor, partial curve, poor fit]	–
O=C(NCc1ccc2c(c1)OCCO2)N1CCN(S(=O)(=O)c2c(Cl)cccc2Cl)CC1	–	inactive: 7.48%
C#CCNC(=O)C1=C[C@H](c2ccc3c(c2)OCO3)C[C@H](OCCCCO)O1	inconclusive: 17.8 µM [inhibitor, full curve, poor fit]	–
O=C(c1ccccc1F)N1CCCC(N2CCN(Cc3ccc4c(c3)OCO4)CC2)C1 (stereo not given)	inconclusive: 126 µM [inhibitor, single point]	–
O=C(COC(=O)CCC(=O)c1ccc(F)cc1)Nc1ccccc1	–	inactive: 14.5%
O=C(Nc1ccncc1)c1cncc(Br)c1	inconclusive: 5.62 µM [inhibitor, full curve]	–
c1ccc2c(c1)CNC1(CCN(Cc3cccc4ccccc34)CC1)CO2	inconclusive: 79.4 µM [inhibitor, single point]	–
Cc1nc2ccc(N=NC3=C(O)CCCC3=O)cc2s1	inconclusive: 11.2 µM [inhibitor, partial curve, poor fit]	–
CCn1nc(C(=O)OCC(=O)N(C)c2ccccc2)c2ccccc2c1=O	–	inactive: 4.19%
CCOC(=O)C(N)CO (stereo not given)	inconclusive: 2.51 µM [inhibitor, full curve, poor fit]	–
O=S(=O)(c1ccc2ccccc2c1)N(CC1CO1)c1ccccc1 (stereo not given)	–	inactive: -3.79%
CC/C(=N\NC(=O)c1ccc(C(C)(C)C)cc1)c1ccc(C)cc1	–	inactive: 22.9%
O=C(CS(=O)(=O)Cc1ccccc1)Nc1nnc(C2CCCCC2)s1	inconclusive: 79.4 µM [inhibitor, single point]	–
Clc1ccccc1-c1cc(NCCN2CCOCC2)ncn1	inconclusive: 20 µM [inhibitor, partial curve, poor fit]	–
CCOC(=O)CC1Sc2ccccc2NC1=S (stereo not given)	–	inactive: 14.9%
CCc1ccc(NC(=O)Nc2ccc3sc(NS(=O)(=O)c4ccccc4)nc3c2)cc1	inconclusive: 7.08 µM [inhibitor, full curve, poor fit]	–
CC1=Nc2cc(C(=O)O)ccc2Sc2ccc(Br)cc21	active: 44.7 µM	–

Record cards, from the list above:
Cc1cc(Oc2ccc([N+](=O)[O-])cc2)nc(N2CCOCC2)n1 in the list: Potency: inconclusive: 12.6 µM [inhibitor, partial curve, poor fit]
O=C(COC(=O)CCC(=O)c1ccc(F)cc1)Nc1ccccc1 in the list: activity change, negative = inhibition: inactive: 14.5%

Remaining list, next part.

SMILES	Potency	activity change, negative = inhibition
Cc1ccc(-c2noc(-c3cccn3CC(=O)N3CCC(C)CC3)n2)cc1	–	inactive: 9.71%
C[C@H](CO)N1C[C@H](C)[C@@H](CN(C)Cc2cccnc2)Oc2ncc(-c3cccc(C#N)c3)cc2C1=O	inconclusive: 28.2 µM [inhibitor, partial curve, poor fit]	–
COc1cc2ncnc(NCc3ccc4c(c3)OCO4)c2cc1OC	–	inactive: 5.98%
CC(C)C[C@H](Nc1ncnc2sc3c(c12)CCCC3)C(=O)O	inconclusive: 56.2 µM [inhibitor, single point]	–
O=C(Cn1ccccc1=O)Nc1ccc(Br)cc1Br	inconclusive: 44.7 µM [inhibitor, partial curve, poor fit]	–
CCOC(=O)c1cn[nH]c1S(=O)(=O)N(CC(C)C)CC(C)C	inconclusive: 31.6 µM [inhibitor, partial curve, poor fit]	–
O=C(Cc1ccc(F)cc1)N1CCC2(CC1)CCN(CCc1ccccc1)c1ccccc1O2	inconclusive: 50.1 µM [inhibitor, partial curve]	–
Cc1cc(N2CCN(C(c3ccnc4ccccc34)c3nnnn3-c3c(C)cccc3C)CC2)c2ccccc2n1 (stereo not given)	inconclusive: 0.251 µM [inhibitor, full curve, poor fit]	–
CCN(CC)S(=O)(=O)c1cc(-c2onc(C)c2C)ccc1OC	–	inconclusive: -33.2% [inhibitor]
CCc1ccccc1NC(=O)c1ccc2ccccc2n1	inconclusive: 44.7 µM [inhibitor, single point]	–
CC1(C(=O)Nc2ccc(Cl)cc2)Cc2c(-c3cccc(C(F)(F)F)c3)ccnc2O1 (stereo not given)	inconclusive: 100 µM [inhibitor, single point]	–
C=CCNC(=O)c1cc(Cl)cc(Cl)c1	–	inactive: -4.1%
O=C(O)c1c(Cl)c(Cl)c(Cl)c(Cl)c1C(=O)N1CCOCC1	active: 11.2 µM	–
O=C(N[C@H]1CC[C@H](CCNS(=O)(=O)c2ccc(Cl)cc2)O[C@@H]1CO)c1cccc(F)c1	inconclusive: 112 µM [inhibitor, single point]	–
C=CCn1c(N)c(C(=O)OCC(C)C)c2nc3ccccc3nc21	inconclusive: 70.8 µM [inhibitor, partial curve, poor fit]	–
O=C(C(=O)c1cc(Br)ccc1O)c1cc(Br)ccc1O	inconclusive: 28.2 µM [inhibitor, partial curve, poor fit]	–
O=C(NC(Cc1ccccc1)C(=O)NCc1cccs1)c1ccco1 (stereo not given)	–	inactive: -12.5%
COc1ccc(-n2ncc3c(NC(C)C)ncnc32)cc1	inconclusive: 70.8 µM [inhibitor, partial curve, poor fit]	–
COCC(=O)n1nc(NCc2cccc(Cl)c2)nc1NCc1cccc(Cl)c1	inconclusive: 79.4 µM [inhibitor, single point]	–
CCc1nnsc1C(=O)N(C)Cc1cccc(Cl)c1Cl	–	inactive: 13.9%
CC(=O)Nc1cc2c(cc1C(=O)c1ccccc1)OCCO2	–	inactive: 112%
COc1cccc(NC(=O)C(NCC2CCCCC2)c2ccccc2)c1 (stereo not given)	inconclusive: 0.316 µM [inhibitor, full curve, poor fit]	–
